Primary screen of a compound library

The chains behind the UniProt entries cited, without tags or fusion partners.
UniProt P9WFT3, whole entry: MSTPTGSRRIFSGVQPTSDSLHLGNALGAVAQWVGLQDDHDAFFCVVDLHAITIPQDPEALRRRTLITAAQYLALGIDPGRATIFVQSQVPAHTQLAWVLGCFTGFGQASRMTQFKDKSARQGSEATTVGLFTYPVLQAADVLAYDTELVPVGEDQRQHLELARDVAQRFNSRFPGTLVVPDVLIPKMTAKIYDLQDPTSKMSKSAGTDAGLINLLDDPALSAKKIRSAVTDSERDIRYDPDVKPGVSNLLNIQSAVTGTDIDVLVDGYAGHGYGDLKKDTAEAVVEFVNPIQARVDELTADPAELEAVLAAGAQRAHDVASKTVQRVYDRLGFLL
UniProt P9WPC5, whole entry: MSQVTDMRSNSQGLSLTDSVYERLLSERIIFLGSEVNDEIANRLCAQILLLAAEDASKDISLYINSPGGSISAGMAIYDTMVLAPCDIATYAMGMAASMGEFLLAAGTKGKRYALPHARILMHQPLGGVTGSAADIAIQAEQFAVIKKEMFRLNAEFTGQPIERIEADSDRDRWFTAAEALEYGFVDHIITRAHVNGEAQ
UniProt P9WPC3, whole entry partner: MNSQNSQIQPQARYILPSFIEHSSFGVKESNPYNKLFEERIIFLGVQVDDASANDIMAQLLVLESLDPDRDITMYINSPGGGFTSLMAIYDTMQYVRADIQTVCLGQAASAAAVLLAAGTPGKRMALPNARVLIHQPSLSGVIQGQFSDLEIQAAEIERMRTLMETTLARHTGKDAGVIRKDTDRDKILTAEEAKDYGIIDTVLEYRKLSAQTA

The values are deposited in ChEMBL (CHEMBL3988442, “University of Dundee, Small-Polar-MMV Screening Library” (2021)).

MtTrpRS: 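Tryptophan-tRNA ligase, Mycobacterium tuberculosis (UniProt P9WFT3). Enzyme assay of tryptophanyl-tRNA synthetase; the read-out is not stated. Tested at 10 µM. Higher most likely means stronger inhibition; the record gives no direction and few retests gave an IC50. About 65,000 compounds were tested under these conditions; 0.098% (about 64) showed 50% or more at least once.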
ClpP1P2: 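Protease assay of ClpP1P2, read by the AMC dye that it sets free. Target: ClpP1P2, Mycobacterium tuberculosis (UniProt P9WPC5 and UniProt P9WPC3). Concentration: 50 µM. Higher reads as stronger inhibition, judged from the few compounds that gave an IC50. Most other retested compounds had strongly negative values. Size under these conditions: about 69,000 compounds, about 10 of them at 50% or above in at least one test.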

Values are the deposited “Percent Effect”, in %.
The record does not define 0% and 100%; most values in the screen are far below 50% and negative numbers occur (in some assays of this library far below -100).
This is an unselected part of the compounds tested.
A dash means the value is not listed here; it may have been measured.

| # | SMILES | MtTrpRS | ClpP1P2 |
|---|---|---|---|
| 1 | `CCc1sc(C(=O)Nc2cnn(CC(N)=O)c2)cc1C` | -1.5% | 6.191% |
| 2 | `Cc1cc(CN2CCc3cncnc3C2)no1` | -0.9288% | -0.6434% |
| 3 | `CN1CCN(C(=O)Cn2nc(C(F)(F)F)c(Br)c2C2CC2)CC1` | 4.466% | -5.519% |
| 4 | `Clc1cccc(Cl)c1CNCCOc1ccccn1` | -0.2427% | 3.147% |
| 5 | `c1cnn(-c2ccc(CCNC3CCN(C4CC4)C3)cc2)c1` (stereo unspecified) | -1.085% | 10.88% |
| 6 | `c1cc(CN2CC[C@@H]3[C@@H](CO[C@H]3CN3CCOCC3)C2)cs1` | -7.169% | -13.06% |
| 7 | `CC(=O)N1CCOCC(Cc2ccc3c(ccn3C)c2)C1` (stereo unspecified) | -5.409% | -16.72% |
| 8 | `Cc1ccoc1C(=O)N1C[C@@H]2COC[C@]2(CNS(C)(=O)=O)C1` | 0.5578% | 5.61% |
| 9 | `Cn1c(=O)oc2ccc(S(=O)(=O)N3CCC(c4ccccc4)C3)cc21` (stereo unspecified) | -0.07179% | 13.45% |
| 10 | `c1cncc(CN2CCCn3nnc(COCC4CC4)c3C2)c1` | -3.715% | -3.885% |
| 11 | `O=C(Cn1c(=O)oc2ccccc21)NCC1(O)CCc2ccccc21` (stereo unspecified) | 10.01% | -6.574% |
| 12 | `Cc1cc(NC(=O)N2CCN(C)CC2C)n(C(C)(C)C)n1` (stereo unspecified) | -3.968% | -11.13% |
| 13 | `Cc1ccnc(N2CCN(Cc3ccccc3)CC(O)C2)c1` (stereo unspecified) | -0.486% | -2.021% |
| 14 | `CCC(=O)N1CCN(c2ncnc3c(C)nn(C)c23)CC1` | -3.497% | 20.68% |
| 15 | `Cc1ncc(CNCC2CCCN2c2cccnn2)s1` (stereo unspecified) | -3.411% | 6.972% |
| 16 | `O=C(COC1CCCC1)NCCc1noc(-c2ccccn2)n1` | -0.7227% | 0.3579% |
| 17 | `CC(NC(=O)NCC1(c2ccc(F)cc2)CC1)c1nncn1C` (stereo unspecified) | -8.731% | -41.72% |
| 18 | `CCCC(=O)Nc1cccc([C@H]2C[C@@H](NC(C)=O)CCO2)c1` | 3.721% | -7.966% |
| 19 | `Cc1noc(C)c1CN1CC[C@H]2[C@@H]1CCC(=O)N2CC1CCOCC1` | - | -12.23% |
| 20 | `COC[C@@]12CCC[C@@H]1CN(C(=O)Cc1ccccn1)C2` | - | 14.04% |
| 21 | `Cc1cc(N[C@H]2CCCN(Cc3ccccc3)C2)n2nc(C)cc2n1` | 0% | -3.852% |
| 22 | `CC1(C)CC(N(Cc2ccccc2)Cc2ncc[nH]2)CC(C)(C)N1` | -4.427% | -10.5% |
| 23 | `CC(=O)N1CCC(NC(=O)Cc2nc3nc(C)cc(C)n3n2)CC1` | 0.07178% | 1.039% |
| 24 | `CN(C)C(=O)c1ccc(-c2cccc3c2CCNC3)o1` | 1.127% | -19.15% |
| 25 | `CC(Cn1cccn1)NC(=O)NCc1cccs1` (stereo unspecified) | 4.307% | 2.454% |
| 26 | `CC(C)OCCN1CCC(N2CCN(C)C2=O)CC1` | 2.638% | 4.688% |
| 27 | `Cc1n[nH]c(C)c1CCN(C)C(=O)C(c1cccnc1)N1CCOCC1` (stereo unspecified) | -0.3127% | -6.714% |
| 28 | `Cc1cnc2[nH]c(C(F)(F)F)c(CN3CCSCC3)c2c1` | -5.065% | -29.93% |
| 29 | `CN(C)c1cc(C2CCCNC2)ccn1` (stereo unspecified) | -1.847% | -14.19% |
| 30 | `Cc1nc(-c2cccnc2)ncc1C(=O)N1CCCC(N(C)C)CC1` (stereo unspecified) | 0.1961% | 2.642% |
| 31 | `Cn1c(CO)cnc1SC1CCCN(c2ccccc2F)C1=O` (stereo unspecified) | -0.7064% | 2.884% |
| 32 | `O=C(CNC(=O)c1ccc2c(c1)CCC2)NCCNc1ncccn1` | -1.709% | -10.09% |
| 33 | `NC(=O)COc1ccc(CNCc2ccc(F)cc2F)cc1` | -2.085% | 1.776% |
| 34 | `O=C(c1ccc2ncsc2c1)N1CCC(C(=O)O)(n2cccn2)CC1` | 3.494% | -3.256% |
| 35 | `Cc1ccoc1-c1nnc(CN2CCn3c(nnc3C3CC3)C2)o1` | -5.152% | -9.133% |
| 36 | `Cc1ncsc1CN1CCn2c(COCC3CC3)cnc2C1C` (stereo unspecified) | -3.427% | -1.295% |
| 37 | `Cc1nc(C)n(CC2CN(CCOc3cccc(C#N)c3)CCO2)n1` (stereo unspecified) | -5.245% | -21.38% |
| 38 | `Cc1nc(C(C)C)sc1C(=O)N(C)Cc1cnn(C)c1` | 0.1037% | -3.342% |
| 39 | `Cc1nc(CN2CCc3nn(C(C)C)c(=O)cc3C2)oc1C` | 5.75% | -4.663% |
| 40 | `O=S(=O)(c1c(F)cccc1F)N1CCCC1c1nnc2n1CCCCC2` (stereo unspecified) | 3.072% | -14.94% |
| 41 | `CCC(NC(=O)C1CCN(S(C)(=O)=O)CC1)c1ccc(C)cc1C` (stereo unspecified) | 1.356% | -5.324% |
| 42 | `CCc1nc(CC(=O)NCC(Cc2ccc(F)cc2)C(N)=O)cs1` (stereo unspecified) | 18.75% | -11.34% |
| 43 | `CC(C)OCCCNC(=O)CN1CCC(N2CCN(C)C2=O)CC1` | 2.754% | 0.798% |
| 44 | `CC(C)C(=O)NC1CCCc2nc(N3CCOCC3)ncc21` (stereo unspecified) | - | -4.444% |
| 45 | `COc1cccc2c1OCC(NCc1cnn(-c3ccccc3)c1)C2` (stereo unspecified) | 8.779% | -4.828% |
| 46 | `Cc1cccc(CNc2ccc(C(=O)N3CCC(CO)CC3)cc2)c1` | 0.516% | -1.799% |
| 47 | `CC(NC(=O)CCn1cncn1)c1nnc2n1CCCCC2` (stereo unspecified) | -0.07337% | -4.235% |
| 48 | `c1cc(N2CCCC2c2cnccn2)ncn1` (stereo unspecified) | - | -5.032% |

The last 4 entries again:

SMILES	MtTrpRS	ClpP1P2
COc1cccc2c1OCC(NCc1cnn(-c3ccccc3)c1)C2 (stereo unspecified)	8.779%	-4.828%
Cc1cccc(CNc2ccc(C(=O)N3CCC(CO)CC3)cc2)c1	0.516%	-1.799%
CC(NC(=O)CCn1cncn1)c1nnc2n1CCCCC2 (stereo unspecified)	-0.07337%	-4.235%
c1cc(N2CCCC2c2cnccn2)ncn1 (stereo unspecified)	-	-5.032%